According to patent publication US20240026314A1, “POLYPEPTIDES FOR USE IN THE SYNTHESIS OF BIOACTIVE PHENOLIC COMPOUNDS” (priority 2020, published 2024):
Some of these results come from one statement about several compounds together.

Tested on: CsOMT1
Experiment: O-methyltransferase enzyme assay with recombinant CsOMT1
Format: biochemical, Cannabis sativa
Conditions: compound as substrate, 1 mM, [14C]-SAM methyl donor, relative to dihydroresveratrol

With Oc1cc(O)cc(/C=C/c2ccccc2)c1 [pinosylvin] the “O-methyltransferase activity relative to that with DHR” value was “lower than 5%”.
